PubChem BioAssay AID1159584 | Peter MacCallum Cancer Centre – 2016

Screen: 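Knock-downs that harm CDH1-null cells more than parental MCF10A cells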 (primary screen)
Cells: human MCF10A breast epithelial cells, parental and CDH1-null
Reagent: siRNA against human genes
Detection: 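Cell viability by CellTiter-Glo ATP luminescence, each line scaled to the mean of mock wells across plates, then CDH1-null over parental ratio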
Reading the numbers: CDH1-null / parental viability ratio: higher = CDH1-null cells survive relatively better than parental
The whole screen tested about 18,000 reagents; this is a part drawn at random. Further read-outs or replicates are left out here. Not given: the amount of reagent, the time to read-out.

| Gene | CDH1-null / parental viability ratio |
| --- | --- |
| PRRX1 (paired related homeobox 1) | 1.11 |
| B4GALNT1 (beta-1,4-N-acetyl-galactosaminyltransferase 1) | 1.14 |
| SLC9A7 | 0.88 |
| PUS3 (pseudouridine synthase 3) | 0.99 |
| RBBP8NL (RBBP8 N-terminal like) | 0.98 |
| PRDM11 (PR/SET domain 11) | 0.86 |
| IGF2BP1 (insulin like growth factor 2 mRNA binding protein 1) | 0.82 |
| KPNA1 (karyopherin subunit alpha 1) | 0.93 |
| NAPSA (napsin A aspartic peptidase) | 1.1 |
| AP2S1 (adaptor related protein complex 2 subunit sigma 1) | 1.12 |
| NRP2 (neuropilin 2) | 1.45 |
| BACE2 (beta-secretase 2) | 1.38 |
| LIG1 (DNA ligase 1) | 1.08 |
| OSBPL1A (oxysterol binding protein like 1A) | 1.16 |
| HIBADH (3-hydroxyisobutyrate dehydrogenase) | 0.96 |
| UTP15 (UTP15 small subunit processome component) | 1.02 |
| MAPK3 (mitogen-activated protein kinase 3) | 0.96 |
| SLC25A43 | 0.9 |
| PPP1R26 (protein phosphatase 1 regulatory subunit 26) | 0.97 |
| ZAN (zonadhesin) | 0.99 |
| C14orf180 (chromosome 14 open reading frame 180) | 1.02 |
| GNLY (granulysin) | 1.12 |
| OTC (ornithine transcarbamylase) | 1.04 |
| CRELD1 (CRELD disulfide isomerase 1) | 1.08 |
| C4orf36 (chromosome 4 open reading frame 36) | 0.9 |
| PITPNM3 (PITPNM family member 3) | 0.76 |
| KRTCAP3 (keratinocyte associated protein 3) | 0.96 |
| GSTZ1 (glutathione S-transferase zeta 1) | 0.78 |
| UTP3 (UTP3 small subunit processome component) | 1.27 |
| TCFL5 (transcription factor like 5) | 1.2 |
| HLA-F (major histocompatibility complex, class I, F) | 0.91 |
| KMT5C (lysine methyltransferase 5C) | 0.89 |
| RPL19P9 (ribosomal protein L19 pseudogene 9) | 1.53 |
| CNKSR1 (connector enhancer of kinase suppressor of Ras 1) | 1.24 |
| OR6K2 (olfactory receptor family 6 subfamily K member 2) | 1.04 |
| ALOX15B (arachidonate 15-lipoxygenase type B) | 0.93 |
| RPL5 (ribosomal protein L5) | 1.45 |
| MAPKAPK3 (MAPK activated protein kinase 3) | 0.94 |
| GPR179 (G protein-coupled receptor 179) | 0.89 |
| CWC27 (CWC27 spliceosome associated cyclophilin) | 0.96 |

Next part, starting with the last 6 of the part before.
| Gene | CDH1-null / parental viability ratio |
| --- | --- |
| OR6K2 (olfactory receptor family 6 subfamily K member 2) | 1.04 |
| ALOX15B (arachidonate 15-lipoxygenase type B) | 0.93 |
| RPL5 (ribosomal protein L5) | 1.45 |
| MAPKAPK3 (MAPK activated protein kinase 3) | 0.94 |
| GPR179 (G protein-coupled receptor 179) | 0.89 |
| CWC27 (CWC27 spliceosome associated cyclophilin) | 0.96 |
| NR2C2 (nuclear receptor subfamily 2 group C member 2) | 0.91 |
| OTULIN (OTU deubiquitinase with linear linkage specificity) | 1.01 |
| GRSF1 (G-rich RNA sequence binding factor 1) | 0.88 |
| MSTO1 (misato mitochondrial distribution and morphology regulator 1) | 0.96 |
| PLK2 (polo like kinase 2) | 1.01 |
| ELK3 (ETS transcription factor ELK3) | 1.01 |
| CRIPT (CXXC repeat containing interactor of PDZ3 domain) | 0.93 |
| SERPINF2 (serpin family F member 2) | 1.26 |
| GET3 (guided entry of tail-anchored proteins factor 3, ATPase) | 1.21 |
| GLUD2 (glutamate dehydrogenase 2) | 0.94 |
| OR5M1 (olfactory receptor family 5 subfamily M member 1) | 1.15 |
| ZBTB10 (zinc finger and BTB domain containing 10) | 0.67 |
| DDX19B (DEAD-box helicase 19B) | 0.5 |
| MAD2L1BP (MAD2L1 binding protein) | 1.26 |
| GLG1 (golgi glycoprotein 1) | 0.97 |
| INHBC (inhibin subunit beta C) | 1.11 |
| RAB3GAP1 (RAB3 GTPase activating protein catalytic subunit 1) | 1 |
| HSP90B1 (heat shock protein 90 beta family member 1) | 0.98 |
| NAA40 (N-alpha-acetyltransferase 40, NatD catalytic subunit) | 0.73 |
| ANKRD22 (ankyrin repeat domain 22) | 0.88 |
| MINDY4 (MINDY lysine 48 deubiquitinase 4) | 1.18 |
| WNK2 (WNK lysine deficient protein kinase 2) | 0.89 |
| CCT5 (chaperonin containing TCP1 subunit 5) | 1.21 |
| RPRM (reprimo, TP53 dependent G2 arrest mediator homolog) | 1.19 |
| TAF13 (TATA-box binding protein associated factor 13) | 1.29 |
| NDUFA7 (NADH:ubiquinone oxidoreductase subunit A7) | 0.96 |
| HARS2 (histidyl-tRNA synthetase 2, mitochondrial) | 0.92 |
| KRAS (KRas proto-oncogene, GTPase) | 1 |
